The text below walks through data of paper PMC8857481.

Results are given in words; binding and its absence hold for the method and conditions named. In cells and extracts the contact can be indirect. Here binding means that the protein was enriched with, or labelled near, the bait; the list need not be complete.

The assay has as its target FLAG-METTL5 (human). Description: affinity purification with mass spectrometry; FLAG-M2 magnetic beads in lysate of FreeStyle 293-F cells transfected with pCS2-FLAG-METTL5, 30 min at 4 °C; washes with lysis buffer (50 mM NaCl, 0.5% NP-40) and high salt buffer (500 mM KCl); silver-stained gel bands excised and identified by nano LC/MS/MS.

B1: TRMT112 (protein, UniProt Q9UI30 1-125)
chain: MKLLTHNLLSSHVRGVGSRGFPLRLQATEVRICPVEFNPNFVARMIPKVEWSAFLEAADNLRLIQVPKGPVEGYEENEEFLRTMHHLLLEVEVIEGTLQCPESGRMFPISRGIPNMLLSEEETES
Turning to B1, the binding result is recorded as “binds”.
